According to paper PMC10909764:
Residue numbers refer to the chain shown, from its start. Results are given in words; binding and its absence hold for the method and conditions named. Binding seen in cells or lysates may run through a third protein. Some results given as binding are weak or reduced against the parent protein; the word gives no strength. For some assays here: Tags and fused reporters may be left off the sequences shown. Each block holds one molecule with its values, some of them ahead of it.

Amino acid sequences for entries named in this document (tags omitted). Residues count along the entry.
UniProt P11717, residues 41-2491: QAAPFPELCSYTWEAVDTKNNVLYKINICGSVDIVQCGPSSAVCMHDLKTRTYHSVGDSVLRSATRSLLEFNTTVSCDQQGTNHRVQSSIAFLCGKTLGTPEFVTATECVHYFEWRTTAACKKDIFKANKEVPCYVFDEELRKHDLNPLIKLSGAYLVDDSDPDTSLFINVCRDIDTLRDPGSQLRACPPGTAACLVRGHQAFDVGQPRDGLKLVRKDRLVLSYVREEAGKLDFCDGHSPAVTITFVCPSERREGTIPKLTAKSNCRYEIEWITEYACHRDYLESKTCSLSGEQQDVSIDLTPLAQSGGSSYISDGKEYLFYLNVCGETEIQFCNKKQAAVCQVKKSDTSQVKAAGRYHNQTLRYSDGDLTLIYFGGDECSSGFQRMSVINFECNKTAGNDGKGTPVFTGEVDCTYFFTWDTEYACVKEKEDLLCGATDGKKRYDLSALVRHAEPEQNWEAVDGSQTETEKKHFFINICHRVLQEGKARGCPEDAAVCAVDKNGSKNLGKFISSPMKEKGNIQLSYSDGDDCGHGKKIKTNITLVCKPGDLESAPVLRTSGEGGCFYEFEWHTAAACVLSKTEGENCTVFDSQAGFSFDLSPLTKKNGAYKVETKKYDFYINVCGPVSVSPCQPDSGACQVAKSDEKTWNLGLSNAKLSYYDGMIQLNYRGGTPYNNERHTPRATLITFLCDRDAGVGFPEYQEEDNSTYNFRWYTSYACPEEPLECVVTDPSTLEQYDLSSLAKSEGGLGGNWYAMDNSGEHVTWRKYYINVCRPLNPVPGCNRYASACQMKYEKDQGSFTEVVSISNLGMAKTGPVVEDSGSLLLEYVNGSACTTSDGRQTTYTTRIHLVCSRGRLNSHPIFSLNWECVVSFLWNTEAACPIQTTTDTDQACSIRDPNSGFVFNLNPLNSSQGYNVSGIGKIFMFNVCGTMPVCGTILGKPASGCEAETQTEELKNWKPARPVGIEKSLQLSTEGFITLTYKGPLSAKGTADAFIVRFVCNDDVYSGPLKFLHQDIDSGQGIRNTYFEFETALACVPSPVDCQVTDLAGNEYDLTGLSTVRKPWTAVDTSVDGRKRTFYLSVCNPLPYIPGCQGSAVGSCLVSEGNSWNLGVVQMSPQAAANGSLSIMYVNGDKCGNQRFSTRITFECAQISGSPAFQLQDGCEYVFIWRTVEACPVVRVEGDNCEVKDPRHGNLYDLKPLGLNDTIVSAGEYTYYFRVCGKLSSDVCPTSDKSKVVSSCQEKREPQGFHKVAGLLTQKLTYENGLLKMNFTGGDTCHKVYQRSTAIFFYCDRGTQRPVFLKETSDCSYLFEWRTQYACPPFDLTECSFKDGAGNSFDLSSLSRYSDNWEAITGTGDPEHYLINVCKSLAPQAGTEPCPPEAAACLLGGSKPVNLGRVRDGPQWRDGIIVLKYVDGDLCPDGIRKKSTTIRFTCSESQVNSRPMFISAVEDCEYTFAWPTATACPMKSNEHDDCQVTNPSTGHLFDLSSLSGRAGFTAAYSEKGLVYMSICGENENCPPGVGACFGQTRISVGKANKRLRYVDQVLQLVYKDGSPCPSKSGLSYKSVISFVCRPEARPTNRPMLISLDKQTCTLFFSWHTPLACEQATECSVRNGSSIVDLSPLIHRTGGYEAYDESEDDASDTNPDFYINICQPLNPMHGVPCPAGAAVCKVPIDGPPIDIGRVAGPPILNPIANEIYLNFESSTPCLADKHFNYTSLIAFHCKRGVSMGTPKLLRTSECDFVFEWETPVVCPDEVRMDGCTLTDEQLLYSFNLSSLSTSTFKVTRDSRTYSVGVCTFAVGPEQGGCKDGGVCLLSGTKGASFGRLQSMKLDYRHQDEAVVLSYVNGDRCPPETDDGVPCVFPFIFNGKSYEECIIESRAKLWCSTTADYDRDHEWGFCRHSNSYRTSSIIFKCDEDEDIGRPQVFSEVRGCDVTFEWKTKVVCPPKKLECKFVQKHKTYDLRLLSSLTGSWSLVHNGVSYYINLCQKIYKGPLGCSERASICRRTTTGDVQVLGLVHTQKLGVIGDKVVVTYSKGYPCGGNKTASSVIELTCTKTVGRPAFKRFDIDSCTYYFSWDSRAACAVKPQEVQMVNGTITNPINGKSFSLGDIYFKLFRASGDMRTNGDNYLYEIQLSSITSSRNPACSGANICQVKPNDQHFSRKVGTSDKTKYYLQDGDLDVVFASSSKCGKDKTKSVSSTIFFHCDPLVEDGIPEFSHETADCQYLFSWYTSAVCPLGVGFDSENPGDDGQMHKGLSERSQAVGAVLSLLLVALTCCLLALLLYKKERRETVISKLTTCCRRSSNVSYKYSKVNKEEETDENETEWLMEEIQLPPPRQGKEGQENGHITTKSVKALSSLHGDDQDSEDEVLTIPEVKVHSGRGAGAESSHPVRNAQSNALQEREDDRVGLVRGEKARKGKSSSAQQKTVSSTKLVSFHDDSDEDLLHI
UniProt P35670: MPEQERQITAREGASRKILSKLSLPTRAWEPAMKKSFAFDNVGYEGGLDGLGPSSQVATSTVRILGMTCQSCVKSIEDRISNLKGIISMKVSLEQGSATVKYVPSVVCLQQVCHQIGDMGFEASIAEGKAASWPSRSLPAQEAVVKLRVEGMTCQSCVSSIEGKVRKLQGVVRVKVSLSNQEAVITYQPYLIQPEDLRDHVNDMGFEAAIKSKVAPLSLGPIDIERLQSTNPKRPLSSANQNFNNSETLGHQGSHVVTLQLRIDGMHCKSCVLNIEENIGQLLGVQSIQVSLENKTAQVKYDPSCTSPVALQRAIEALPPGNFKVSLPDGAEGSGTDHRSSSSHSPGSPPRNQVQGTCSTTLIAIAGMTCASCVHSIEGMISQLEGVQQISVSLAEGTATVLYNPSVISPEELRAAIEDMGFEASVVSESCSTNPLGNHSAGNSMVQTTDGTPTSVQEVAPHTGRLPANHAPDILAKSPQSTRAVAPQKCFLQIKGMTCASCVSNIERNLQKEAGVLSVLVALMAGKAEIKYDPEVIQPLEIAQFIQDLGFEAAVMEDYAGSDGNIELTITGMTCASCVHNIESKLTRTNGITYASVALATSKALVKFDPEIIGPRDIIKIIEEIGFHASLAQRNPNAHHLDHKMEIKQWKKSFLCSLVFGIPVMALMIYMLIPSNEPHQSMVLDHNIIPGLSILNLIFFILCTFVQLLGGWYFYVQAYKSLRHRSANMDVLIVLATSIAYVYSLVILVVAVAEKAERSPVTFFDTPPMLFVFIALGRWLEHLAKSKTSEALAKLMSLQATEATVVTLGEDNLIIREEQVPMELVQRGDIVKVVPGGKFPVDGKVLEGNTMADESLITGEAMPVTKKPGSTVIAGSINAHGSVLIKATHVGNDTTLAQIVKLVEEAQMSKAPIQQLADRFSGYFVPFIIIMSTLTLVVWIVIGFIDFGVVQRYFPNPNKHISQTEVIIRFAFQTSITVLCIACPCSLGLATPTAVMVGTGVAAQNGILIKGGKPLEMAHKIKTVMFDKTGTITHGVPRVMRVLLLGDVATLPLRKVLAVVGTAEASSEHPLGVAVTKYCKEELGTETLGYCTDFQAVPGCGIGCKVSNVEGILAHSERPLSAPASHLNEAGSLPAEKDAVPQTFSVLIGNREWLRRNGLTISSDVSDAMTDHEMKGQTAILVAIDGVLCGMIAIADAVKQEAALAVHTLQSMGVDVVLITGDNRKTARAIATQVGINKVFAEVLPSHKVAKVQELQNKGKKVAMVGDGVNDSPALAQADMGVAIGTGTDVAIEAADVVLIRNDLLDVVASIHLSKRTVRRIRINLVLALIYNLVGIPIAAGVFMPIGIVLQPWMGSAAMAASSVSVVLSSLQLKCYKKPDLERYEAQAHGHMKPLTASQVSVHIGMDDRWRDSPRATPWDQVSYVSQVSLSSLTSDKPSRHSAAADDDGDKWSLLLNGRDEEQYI
UniProt O43747: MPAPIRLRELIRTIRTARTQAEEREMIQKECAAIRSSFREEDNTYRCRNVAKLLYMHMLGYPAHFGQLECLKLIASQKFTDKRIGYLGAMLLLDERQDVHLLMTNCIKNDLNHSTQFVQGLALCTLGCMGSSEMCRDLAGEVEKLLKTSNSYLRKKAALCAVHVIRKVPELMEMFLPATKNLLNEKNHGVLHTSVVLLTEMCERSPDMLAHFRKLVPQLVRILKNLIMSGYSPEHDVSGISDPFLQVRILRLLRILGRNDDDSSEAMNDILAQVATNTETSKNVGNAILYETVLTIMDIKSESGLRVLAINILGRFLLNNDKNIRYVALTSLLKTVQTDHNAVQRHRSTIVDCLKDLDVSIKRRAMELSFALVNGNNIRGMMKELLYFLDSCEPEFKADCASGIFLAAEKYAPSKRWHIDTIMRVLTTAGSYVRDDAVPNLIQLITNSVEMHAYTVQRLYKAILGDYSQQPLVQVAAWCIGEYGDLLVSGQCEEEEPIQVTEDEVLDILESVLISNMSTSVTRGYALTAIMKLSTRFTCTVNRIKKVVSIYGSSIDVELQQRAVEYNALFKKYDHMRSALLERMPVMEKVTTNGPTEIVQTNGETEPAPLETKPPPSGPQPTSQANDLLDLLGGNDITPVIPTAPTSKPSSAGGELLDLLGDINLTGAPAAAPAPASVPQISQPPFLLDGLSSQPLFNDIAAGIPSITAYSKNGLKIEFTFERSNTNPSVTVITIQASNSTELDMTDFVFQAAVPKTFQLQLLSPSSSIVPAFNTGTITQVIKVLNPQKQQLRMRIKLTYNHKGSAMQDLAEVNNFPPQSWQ

Columns and labels:
[1] = biological target: T1, μ1A(WT)-GFP (UniProt P35585); experiment: co-IP; GFP-Trap agarose on lysates of PEAK cells expressing GFP or μ1A-GFP forms; 10 mM Tris/HCl pH 7.5, 150 mM NaCl, 0.5 mM EDTA, 0.5% Nonidet P40; 2 h at 4 °C; Western blot of endogenous proteins
T1 sequence: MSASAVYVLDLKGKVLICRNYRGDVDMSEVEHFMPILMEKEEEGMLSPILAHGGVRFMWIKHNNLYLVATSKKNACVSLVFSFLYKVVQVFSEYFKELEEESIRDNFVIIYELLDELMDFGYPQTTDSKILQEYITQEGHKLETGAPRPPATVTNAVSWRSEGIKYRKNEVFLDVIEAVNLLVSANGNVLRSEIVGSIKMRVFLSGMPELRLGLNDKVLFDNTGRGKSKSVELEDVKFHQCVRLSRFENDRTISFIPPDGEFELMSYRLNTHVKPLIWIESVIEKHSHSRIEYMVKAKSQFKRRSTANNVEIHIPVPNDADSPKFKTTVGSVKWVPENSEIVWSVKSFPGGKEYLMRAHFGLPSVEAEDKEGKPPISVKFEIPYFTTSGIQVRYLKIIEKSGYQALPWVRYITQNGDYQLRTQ

[2] = biological target: Cation-Independent Mannose-6-phosphate receptor (CI-MPR), endogenous (human (endogenous in PEAK/HEK-293T and HeLa)) (UniProt P11717); experiment: co-IP; HeLa lysate in PBS with 0.1% Triton X-100, pH 7.4; immunoprecipitation with mouse anti-CI-MPR antibody (anti-CD4 as negative control) and protein G-Sepharose at 4 °C; Western blot
[3] = biological target: GFP-ATP7B (UniProt P35670); experiment: co-IP; GFP-Trap on lysates of PEAK cells expressing GFP or GFP-ATP7B, treated 2 h with 200 μM CuCl2; 20 mM HEPES pH 7.5, 250 mM sucrose, 0.1% Nonidet P40, 130 mM NaCl, 1 mM EDTA; overnight at 4 °C; Western blot
[4] = biological target: T2, μ1A(D174A)-GFP (UniProt P35585); experiment: co-IP; GFP-Trap agarose on lysates of PEAK cells expressing GFP or μ1A-GFP forms; 10 mM Tris/HCl pH 7.5, 150 mM NaCl, 0.5 mM EDTA, 0.5% Nonidet P40; 2 h at 4 °C; Western blot of endogenous proteins
T2 sequence: T1 sequence with D174A

[5] = biological target: T3, μ1A(W408S)-GFP (UniProt P35585); experiment: as above
T3 sequence: T1 sequence with W408S

binding [1]: binds
Molecule: Cation-Independent Mannose-6-phosphate receptor (CI-MPR), endogenous (from UniProt P11717 41-2491)

binding [2]: binds
binding [3]: binds
binding [1]: binds
binding [4]: binds
binding [5]: binds
Molecule: γ1-adaptin subunit of AP-1, endogenous (from UniProt O43747 1-822)

binding [2]: binds
binding [3]: binds
binding [1]: binds
binding [4]: binds
binding [5]: binds
B1: γ2-adaptin subunit of AP-1, endogenous (protein, UniProt O75843 1-785)
chain: MVVPSLKLQDLIEEIRGAKTQAQEREVIQKECAHIRASFRDGDPVHRHRQLAKLLYVHMLGYPAHFGQMECLKLIASSRFTDKRVGYLGAMLLLDERHDAHLLITNSIKNDLSQGIQPVQGLALCTLSTMGSAEMCRDLAPEVEKLLLQPSPYVRKKAILTAVHMIRKVPELSSVFLPPCAQLLHERHHGILLGTITLITELCERSPAALRHFRKVVPQLVHILRTLVTMGYSTEHSISGVSDPFLQVQILRLLRILGRNHEESSETMNDLLAQVATNTDTSRNAGNAVLFETVLTIMDIRSAAGLRVLAVNILGRFLLNSDRNIRYVALTSLLRLVQSDHSAVQRHRPTVVECLRETDASLSRRALELSLALVNSSNVRAMMQELQAFLESCPPDLRADCASGILLAAERFAPTKRWHIDTILHVLTTAGTHVRDDAVANLTQLIGGAQELHAYSVRRLYNALAEDISQQPLVQVAAWCIGEYGDLLLAGNCEEIEPLQVDEEEVLALLEKVLQSHMSLPATRGYALTALMKLSTRLCGDNNRIRQVVSIYGSCLDVELQQRAVEYDTLFRKYDHMRAAILEKMPLVERDGPQADEEAKESKEAAQLSEAAPVPTEPQASQLLDLLDLLDGASGDVQHPPHLDPSPGGALVHLLDLPCVPPPPAPIPDLKVFEREGVQLNLSFIRPPENPALLLITITATNFSEGDVTHFICQAAVPKSLQLQLQAPSGNTVPARGGLPITQLFRILNPNKAPLRLKLRLTYDHFHQSVQEIFEVNNLPVESWQ
